Here are results for 3 molecules from article PMC7657459, “A second hybrid-binding domain modulates the activity of Drosophila ribonuclease H1”.

Chains of the proteins cited; added tags and fusions are not shown. Lines headed by an entry give the natural chain unless they say otherwise; changes in a name come on top.
UniProt A1Z769: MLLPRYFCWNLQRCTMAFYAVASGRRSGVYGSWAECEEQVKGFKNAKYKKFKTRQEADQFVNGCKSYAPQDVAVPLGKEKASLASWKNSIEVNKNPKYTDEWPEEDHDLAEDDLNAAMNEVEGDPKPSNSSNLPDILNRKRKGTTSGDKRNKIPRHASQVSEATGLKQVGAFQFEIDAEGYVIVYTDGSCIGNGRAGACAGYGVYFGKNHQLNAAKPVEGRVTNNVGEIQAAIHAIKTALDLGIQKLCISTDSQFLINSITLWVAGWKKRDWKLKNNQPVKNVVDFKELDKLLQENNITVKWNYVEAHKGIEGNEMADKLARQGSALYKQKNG

Results are given in words; binding and its absence hold for the method and conditions named. For part of these data: In cells and extracts the contact can be indirect. For part of these data: Tags and fused reporters may be left off the sequences shown.

The target of assay [1] is T1, HA epitope-tagged mitochondrial single-stranded DNA-binding protein (Drosophila melanogaster) (UniProt P54622).
T1 sequence: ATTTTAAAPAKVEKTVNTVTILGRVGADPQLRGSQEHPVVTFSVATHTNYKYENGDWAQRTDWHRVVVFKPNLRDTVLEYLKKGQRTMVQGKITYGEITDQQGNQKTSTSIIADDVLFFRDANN
Description: co-IP; S2 cells co-overexpressing RNase H1-V5/His and mtSSB-HA, formaldehyde cross-linked; immunoprecipitation with anti-V5 or anti-HA; Western blot with anti-HA and anti-6x-His. Background: In western blotting, separated proteins are transferred to a membrane and probed.

Assay [2] deals with Drosophila melanogaster ribonuclease H1, V5/His epitope-tagged (Drosophila melanogaster) (UniProt A1Z769). The assay is described as above.
Assay [3] concerns the target Dm RNase H1 D252N (amino acids 17-333), bacterially expressed (Drosophila melanogaster). Description: condition: mtSSB up to 7.5 μM with 1 µM RNase H1 D252N; native gel or EMSA; 1 µM RNase H1 D252N with 30-bp RNA/DNA hybrid, incubated with 1, 2.5, 5, 7.5 μM free mtSSB or ssDNA + mtSSB complex, 10 min at room temperature; both purified. A general note: A gel shift assay detects complexes by their altered migration in electrophoresis.

Consider “Drosophila melanogaster ribonuclease H1, V5/His epitope-tagged (from UniProt A1Z769) (enzyme)”, for which, in assay [1], the binding result was “no binding”.

B1: HA epitope-tagged mitochondrial single-stranded DNA-binding protein (protein, UniProt P54622 23-146)
chain: T1 sequence
With B1, the binding entry in assay [2] is recorded as “no binding”.

B2: Drosophila mitochondrial single-stranded DNA-binding protein, purified (protein, UniProt P54622 23-146)
chain: T1 sequence
B2: the binding result in assay [3] is on record as “no binding”.
